Experiment: Fluorescence emission of 3-HFNMe3 in water, excited at 381 nm
Type: physicochemical

For “N-(3-hydroxy-4′-flavonyl)-N,N,N-trimethylammonium sulphate [3-HFNMe3]”, which emission band maximum (normal (tap) water, only one emission band) is on record?
The emission band maximum was 456 nm.

What about the “N* emission band” value (ultra pure water, two bands) of the same substance?
Its value is 450 nm.

And the “T* emission band” value (ultra pure water, two bands)?
Its value is 520 nm.
